Among the data in the supplement of paper PMC12819154, “High-throughput peptide-centric local stability assay extends protein–ligand identification to membrane proteins, tissues and bacteria” (Nature Structural & Molecular Biology, 2025) are log2 fold change values, retold here.

Amino acid sequences for entries named in this document (tags omitted). A change or cut given only in a name is not applied to a line headed by its entry.
UniProt Q6ULP2: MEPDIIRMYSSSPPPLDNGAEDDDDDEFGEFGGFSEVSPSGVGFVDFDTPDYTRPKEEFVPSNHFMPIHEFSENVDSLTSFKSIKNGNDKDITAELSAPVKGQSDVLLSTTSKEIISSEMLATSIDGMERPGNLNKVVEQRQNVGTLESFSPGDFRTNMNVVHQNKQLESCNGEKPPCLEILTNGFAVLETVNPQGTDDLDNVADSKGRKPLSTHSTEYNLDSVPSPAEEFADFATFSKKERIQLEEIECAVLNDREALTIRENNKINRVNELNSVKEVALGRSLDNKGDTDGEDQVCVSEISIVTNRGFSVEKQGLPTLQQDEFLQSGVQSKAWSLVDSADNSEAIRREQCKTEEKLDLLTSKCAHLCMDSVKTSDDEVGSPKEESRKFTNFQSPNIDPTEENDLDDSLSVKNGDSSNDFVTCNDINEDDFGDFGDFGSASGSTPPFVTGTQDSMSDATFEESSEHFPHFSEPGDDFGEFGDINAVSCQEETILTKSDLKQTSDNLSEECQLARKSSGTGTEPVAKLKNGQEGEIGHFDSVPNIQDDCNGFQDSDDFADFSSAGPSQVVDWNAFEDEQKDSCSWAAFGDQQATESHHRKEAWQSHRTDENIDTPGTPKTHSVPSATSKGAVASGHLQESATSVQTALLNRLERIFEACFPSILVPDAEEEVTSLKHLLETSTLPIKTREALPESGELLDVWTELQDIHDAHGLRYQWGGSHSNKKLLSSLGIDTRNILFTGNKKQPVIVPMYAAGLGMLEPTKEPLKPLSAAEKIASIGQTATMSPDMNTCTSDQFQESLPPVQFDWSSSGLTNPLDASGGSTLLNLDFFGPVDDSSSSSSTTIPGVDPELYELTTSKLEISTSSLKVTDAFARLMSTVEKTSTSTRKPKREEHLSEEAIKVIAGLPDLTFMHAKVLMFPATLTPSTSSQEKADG
UniProt Q5VZE5: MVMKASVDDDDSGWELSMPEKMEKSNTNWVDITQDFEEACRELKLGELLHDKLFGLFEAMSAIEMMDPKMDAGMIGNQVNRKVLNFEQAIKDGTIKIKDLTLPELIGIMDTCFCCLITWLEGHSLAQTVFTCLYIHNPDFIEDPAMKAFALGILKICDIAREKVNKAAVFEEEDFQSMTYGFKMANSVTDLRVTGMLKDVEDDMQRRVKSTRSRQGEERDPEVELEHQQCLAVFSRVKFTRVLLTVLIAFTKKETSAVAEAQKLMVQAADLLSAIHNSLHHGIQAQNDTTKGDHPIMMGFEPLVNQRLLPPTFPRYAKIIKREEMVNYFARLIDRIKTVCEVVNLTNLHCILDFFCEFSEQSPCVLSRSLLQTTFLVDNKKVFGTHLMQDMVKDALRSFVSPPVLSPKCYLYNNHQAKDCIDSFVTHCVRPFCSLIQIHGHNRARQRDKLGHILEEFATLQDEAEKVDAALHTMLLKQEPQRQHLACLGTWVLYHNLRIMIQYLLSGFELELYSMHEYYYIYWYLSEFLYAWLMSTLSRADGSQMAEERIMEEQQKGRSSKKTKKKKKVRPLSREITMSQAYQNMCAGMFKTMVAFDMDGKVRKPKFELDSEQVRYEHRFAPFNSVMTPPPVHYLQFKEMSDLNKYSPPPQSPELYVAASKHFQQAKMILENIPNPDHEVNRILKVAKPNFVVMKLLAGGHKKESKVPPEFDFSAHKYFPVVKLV
UniProt Q6NS38: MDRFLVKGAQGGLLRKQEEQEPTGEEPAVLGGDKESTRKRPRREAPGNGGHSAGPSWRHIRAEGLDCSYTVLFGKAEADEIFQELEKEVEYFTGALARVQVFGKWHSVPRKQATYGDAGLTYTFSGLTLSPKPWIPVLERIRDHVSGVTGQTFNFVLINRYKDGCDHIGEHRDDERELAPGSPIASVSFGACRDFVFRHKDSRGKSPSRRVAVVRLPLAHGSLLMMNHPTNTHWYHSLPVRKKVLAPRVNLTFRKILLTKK
UniProt Q6NSI8: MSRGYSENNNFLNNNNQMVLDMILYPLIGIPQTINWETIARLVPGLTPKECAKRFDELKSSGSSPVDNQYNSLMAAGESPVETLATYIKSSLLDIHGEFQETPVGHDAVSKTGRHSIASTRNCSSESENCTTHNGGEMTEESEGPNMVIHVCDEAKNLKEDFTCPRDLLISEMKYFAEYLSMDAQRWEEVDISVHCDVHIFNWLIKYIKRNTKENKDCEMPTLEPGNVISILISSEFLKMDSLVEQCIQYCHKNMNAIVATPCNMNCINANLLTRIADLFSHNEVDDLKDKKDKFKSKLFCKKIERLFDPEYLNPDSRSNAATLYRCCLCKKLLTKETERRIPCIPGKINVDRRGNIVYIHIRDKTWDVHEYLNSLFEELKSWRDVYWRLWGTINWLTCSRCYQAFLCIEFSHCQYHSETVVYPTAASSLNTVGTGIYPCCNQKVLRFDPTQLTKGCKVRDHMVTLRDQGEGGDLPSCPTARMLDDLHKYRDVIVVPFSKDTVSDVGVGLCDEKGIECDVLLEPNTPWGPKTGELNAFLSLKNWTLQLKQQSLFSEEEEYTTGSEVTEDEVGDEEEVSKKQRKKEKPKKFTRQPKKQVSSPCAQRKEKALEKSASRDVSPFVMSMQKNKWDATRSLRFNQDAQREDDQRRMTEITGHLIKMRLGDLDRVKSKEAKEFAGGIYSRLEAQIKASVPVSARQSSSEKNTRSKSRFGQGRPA
UniProt Q6IQ55, whole entry: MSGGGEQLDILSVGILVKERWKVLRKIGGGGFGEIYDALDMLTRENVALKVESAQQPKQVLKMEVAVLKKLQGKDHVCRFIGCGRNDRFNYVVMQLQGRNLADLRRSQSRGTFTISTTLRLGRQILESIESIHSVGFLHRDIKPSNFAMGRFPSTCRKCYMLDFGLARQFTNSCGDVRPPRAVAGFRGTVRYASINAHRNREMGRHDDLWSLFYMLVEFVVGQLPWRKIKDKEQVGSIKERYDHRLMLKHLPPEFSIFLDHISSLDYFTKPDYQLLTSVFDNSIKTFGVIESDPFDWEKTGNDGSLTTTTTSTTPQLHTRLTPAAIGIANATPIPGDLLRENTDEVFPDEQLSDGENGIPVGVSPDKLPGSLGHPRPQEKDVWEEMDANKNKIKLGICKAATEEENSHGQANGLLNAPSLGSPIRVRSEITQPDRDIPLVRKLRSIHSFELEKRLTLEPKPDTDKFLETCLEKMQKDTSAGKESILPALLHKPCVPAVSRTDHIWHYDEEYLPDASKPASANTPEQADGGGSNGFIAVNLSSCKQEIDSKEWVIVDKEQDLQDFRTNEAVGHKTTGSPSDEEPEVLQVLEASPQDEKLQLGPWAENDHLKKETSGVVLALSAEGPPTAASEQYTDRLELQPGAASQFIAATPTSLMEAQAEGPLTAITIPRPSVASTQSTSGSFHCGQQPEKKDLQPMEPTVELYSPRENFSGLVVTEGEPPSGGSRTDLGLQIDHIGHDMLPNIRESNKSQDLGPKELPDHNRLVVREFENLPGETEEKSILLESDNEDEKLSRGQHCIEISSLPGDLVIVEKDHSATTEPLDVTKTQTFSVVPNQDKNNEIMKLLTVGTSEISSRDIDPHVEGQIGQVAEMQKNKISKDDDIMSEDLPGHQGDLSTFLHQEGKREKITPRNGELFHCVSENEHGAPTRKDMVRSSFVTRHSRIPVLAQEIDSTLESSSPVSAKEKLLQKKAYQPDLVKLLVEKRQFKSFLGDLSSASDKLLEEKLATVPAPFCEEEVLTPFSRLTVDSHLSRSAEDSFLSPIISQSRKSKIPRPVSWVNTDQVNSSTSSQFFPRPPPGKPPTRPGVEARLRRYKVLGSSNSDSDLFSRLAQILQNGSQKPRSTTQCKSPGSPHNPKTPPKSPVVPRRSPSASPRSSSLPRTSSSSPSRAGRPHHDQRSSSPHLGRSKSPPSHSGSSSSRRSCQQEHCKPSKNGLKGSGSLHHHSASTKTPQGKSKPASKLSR
UniProt Q6P4F2: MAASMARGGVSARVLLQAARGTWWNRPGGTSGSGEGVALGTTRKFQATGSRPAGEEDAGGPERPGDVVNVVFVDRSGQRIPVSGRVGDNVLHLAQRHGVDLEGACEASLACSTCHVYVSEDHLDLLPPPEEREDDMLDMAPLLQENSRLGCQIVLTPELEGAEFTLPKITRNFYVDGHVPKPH
UniProt Q6IAA8, whole entry: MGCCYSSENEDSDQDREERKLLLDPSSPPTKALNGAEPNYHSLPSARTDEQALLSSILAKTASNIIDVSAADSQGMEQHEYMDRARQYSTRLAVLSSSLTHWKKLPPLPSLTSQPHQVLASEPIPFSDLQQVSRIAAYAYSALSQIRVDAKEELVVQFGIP
UniProt Q6DD87: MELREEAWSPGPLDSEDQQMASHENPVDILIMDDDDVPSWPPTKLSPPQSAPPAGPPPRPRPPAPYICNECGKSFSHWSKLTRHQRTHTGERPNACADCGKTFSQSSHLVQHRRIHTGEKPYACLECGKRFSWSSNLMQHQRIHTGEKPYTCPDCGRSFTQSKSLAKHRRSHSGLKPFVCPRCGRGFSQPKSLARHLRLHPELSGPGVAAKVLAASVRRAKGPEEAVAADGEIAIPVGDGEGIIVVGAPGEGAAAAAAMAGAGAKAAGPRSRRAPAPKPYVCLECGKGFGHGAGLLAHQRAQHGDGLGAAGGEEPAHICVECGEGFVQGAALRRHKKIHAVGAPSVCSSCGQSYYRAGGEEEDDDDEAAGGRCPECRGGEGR
UniProt Q6P3X8: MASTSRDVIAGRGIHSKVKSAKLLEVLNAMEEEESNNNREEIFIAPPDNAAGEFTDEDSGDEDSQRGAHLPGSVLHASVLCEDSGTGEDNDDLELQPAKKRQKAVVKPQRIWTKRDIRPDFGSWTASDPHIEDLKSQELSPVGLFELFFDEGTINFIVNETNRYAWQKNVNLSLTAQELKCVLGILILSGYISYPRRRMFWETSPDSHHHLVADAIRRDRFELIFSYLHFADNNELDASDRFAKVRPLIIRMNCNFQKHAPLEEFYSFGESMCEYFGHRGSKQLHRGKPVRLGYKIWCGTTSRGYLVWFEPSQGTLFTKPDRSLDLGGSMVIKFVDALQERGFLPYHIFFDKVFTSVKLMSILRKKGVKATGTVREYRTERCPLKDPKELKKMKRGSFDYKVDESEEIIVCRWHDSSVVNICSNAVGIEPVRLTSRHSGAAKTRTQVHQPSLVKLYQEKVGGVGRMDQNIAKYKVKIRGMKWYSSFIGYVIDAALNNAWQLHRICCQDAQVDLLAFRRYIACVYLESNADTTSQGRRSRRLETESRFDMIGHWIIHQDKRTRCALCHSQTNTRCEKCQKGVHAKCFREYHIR
UniProt Q6P444: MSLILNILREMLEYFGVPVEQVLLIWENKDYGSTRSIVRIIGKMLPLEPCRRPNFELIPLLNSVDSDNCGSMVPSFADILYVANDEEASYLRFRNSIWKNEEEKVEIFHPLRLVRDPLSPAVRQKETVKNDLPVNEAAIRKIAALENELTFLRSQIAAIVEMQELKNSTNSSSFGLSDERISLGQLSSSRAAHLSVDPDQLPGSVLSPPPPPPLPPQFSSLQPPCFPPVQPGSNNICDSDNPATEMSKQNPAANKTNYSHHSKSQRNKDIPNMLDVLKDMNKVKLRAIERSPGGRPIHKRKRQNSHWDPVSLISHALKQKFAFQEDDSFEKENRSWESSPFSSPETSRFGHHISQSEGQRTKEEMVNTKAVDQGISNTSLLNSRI

The list shows a part of the results. Small differences around the control level are noise.

Compound in this experiment: CN[C@@H]1C[C@H]2O[C@@](C)([C@@H]1OC)n1c3ccccc3c3c4c(c5c6ccccc6n2c5c31)C(=O)NC4 [staurosporine]
Description: log2 fold change of tryptic peptide abundance, ligand vs vehicle (limited proteolysis) (log2 ratio); higher = more trypsin-susceptible (destabilized). The note with it: ligand concentration: 20 uM; sample: K562 cleared lysate; digestion: 4 min, 22 C (HT-PELSA RT4min, Orbitrap Astral).
Regarding “AFTPH (peptide sequence: GQSDVLLSTTSK, peptide start residue: 102) (UniProt Q6ULP2)”, the log2 fold change turned out to be 0.249.

For “UniProt Q5VZE5 (peptide sequence: VLLTVLIAFTKK, peptide start residue: 242)”, the log2 fold change amounted to 0.574.

Consider “ALKBH2 (peptide sequence: YKDGCDHIGEHR, peptide start residue: 161) (UniProt Q6NS38)”, for which the log2 fold change worked out at 0.319.

With “UniProt Q6NSI8 (peptide sequence: KFTRQPK, peptide start residue: 589)”, the log2 fold change turned out to be 0.204.

On to “MRPL54 (peptide sequence: TLEELDPESR, peptide start residue: 106) (UniProt Q6P161)”, for which the log2 fold change was -0.0927.

With “UniProt Q6IQ55 (peptide sequence: SEITQPDRDIPLVR, peptide start residue: 428)”, the log2 fold change is 0.349.

Turning to “FDX2 (peptide sequence: NFYVDGHVPKPH, peptide start residue: 175) (UniProt Q6P4F2)”, the log2 fold change turned out to be 0.00818.

With “UniProt Q6IAA8 (peptide sequence: LLLDPSSPPTK, peptide start residue: 21)”, the log2 fold change is -0.122.

“UniProt Q6DD87 (peptide sequence: GFGHGAGLLAHQR, peptide start residue: 288)”: the log2 fold change is 1.38.

In the case of “UniProt Q6P3X8 (peptide sequence: FDMIGHWIIHQDKR, peptide start residue: 547)”, the log2 fold change is 0.753.

Regarding “UniProt Q6P444 (peptide sequence: FGHHISQSEGQR, peptide start residue: 349)”, the log2 fold change was -0.85.
